In US20060252045A1, “Methods and materials for identifying agents which modulate bone remodeling and agents identified thereby” (priority 2003, published 2006):
Some results were stated once for a whole list of compounds, not compound by compound.

System: Dkk1 suppressed Wnt1/Wnt 3A TCF-signal in U2OS cells
Assay: Release of Dkk1 mediated inhibition of TCF-signal in U2OS cells
Format: cell-based, human
Details: U2OS cells transfected with Wnt1 or Wnt 3a 0.0025 μg/well
Protocol: The final readout is activation of Dkk1 mediated suppressed TCF-signal. […] The experiment represented in FIG. 2 involved U2OS (ATCC) bone cells and is based on the endogenous expression of LRP5/6 receptors. […] 10 μL of the 15× stock was added per well along with appropriately diluted vehicle (i.e., DMSO) control.

Molecule	increase of TCF-signal from the basal level
Wnt 3A	10-15 fold
Wnt1: Wnt ligand co-transfected into U2OS cells (protein, UniProt P04628 28-370, looked up) Proto-oncogene Wnt-1: ANSSGRWWGIVNVASSTNLLTDSKSLQLVLEPSLQLLSRKQRRLIRQNPGILHSVSGGLQSAVRECKWQFRNRRWNCPTAPGPHLFGKIVNRGCRETAFIFAITSAGVTHSVARSCSEGSIESCTCDYRRRGPGGPDWHWGGCSDNIDFGRLFGREFVDSGEKGRDLRFLMNLHNNEAGRTTVFSEMRQECKCHGMSGSCTVRTCWMRLPTLRAVGDVLRDRFDGASRVLYGNRGSNRASRAELLRLEPEDPAHKPPSPHDLVYFEKSPNFCTYSGRLGTAGTAGRACNSSSPALDGCELLCCGRGHRTRTQRVTERCNCTFHWCCHVSCRNCTHTRVLHECL	10-15 fold
